Results taken from PubChem BioAssay AID1487 (National Center for Advancing Translational Sciences (NCATS), 2009).
The list shows a part of the results. The main result of the screen is listed elsewhere. These columns were measured beside it and carry no call. Most of these compounds were active or inconclusive in the main read-out, so they are no random draw. Potencies come from curve fits of mixed quality, noted in brackets.

Assay: qHTS Assay for Modulators of Lamin A Splicing
Details: HeLa LMNA splicing GFP/RFP minigene ratio, 48 h
How it was run: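 S3 HeLa cells stably expressing lamin A-EGFP splicing minigene plus DsRed2, 600 cells/well, 48 h compound exposure at 37C. Laser-scanning cytometry; analysed as GFP (500-530 nm)/RFP (575-640 nm) total intensity ratio; 0.5% DMSO vehicle.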

[1] = measured here: GFP splicing reporter channel
[2] = measured here: RFP viability control channel

| Structure (SMILES) | AC50 [1] | AC50 [2] |
| --- | --- | --- |
| CC(=O)Oc1cccc(N2C(=O)c3ccc(C(=O)Nc4c[nH]c(=O)[nH]c4=O)cc3C2=O)c1 | 1.12 µM [rising, partial curve] | 35.5 µM [rising, partial curve] |
| O=S(=O)(NCc1ccccc1F)NCc1ccccc1F | 3.98 µM [falling, full curve, poor fit] | 5.62 µM [falling, full curve, poor fit] |
| NS(=O)(=O)c1cc2c(cc1Cl)N[C@@H](CC1CCCC1)NS2(=O)=O | – | 1.58 µM [falling, full curve, poor fit] |
| O=C(Nc1cccc(S(=O)(=O)NCc2ccco2)c1)c1cc(-c2ccccc2)nc2ccccc12 | – | 35.5 µM [rising, single point] |
| CCCc1cc(=O)[nH]c(SCc2nc3ccc([N+](=O)[O-])cc3[nH]2)n1 | – | 22.4 µM [rising, partial curve, poor fit] |
| Cc1ccc(-n2c3c(cc(C(=O)NCc4ccco4)c2=O)C(=O)CCC3)cc1 | 0.0112 µM [falling, full curve, poor fit] | – |
| CCOC(=O)n1cc(-c2cnc(CNC(=O)C(C)(c3ccccc3)c3ccccc3)o2)c2ccccc21 | – | 5.01 µM [rising, partial curve] |
| Cc1onc(-c2ccccc2Cl)c1C(=O)OCC(=O)Nc1ccc2c(c1)OCO2 | 11.2 µM [rising, partial curve] | 17.8 µM [rising, single point] |
| COc1ccc(Cl)cc1N(C)C(=O)CCNC(=O)Cn1cnc2ccccc2c1=O | – | 35.5 µM [rising, single point] |
| Oc1ccc2ccccc2c1/C=N/c1nc2c(s1)CCCC2 | – | 14.1 µM [rising, single point] |
| COc1ccc2[nH]c(-c3ccc(C)cc3)cc(=O)c2c1 | – | 14.1 µM [rising, single point] |
| Cc1ccn2c(Nc3ccc4c(c3)OCO4)c(-c3ccccn3)nc2c1 | – | 7.94 µM [rising, partial curve] |
| Cc1ccsc1C1Nc2ccc3ncccc3c2C2=C1C(=O)CC(C)(C)C2 (stereo unspecified) | 7.08 µM [falling, full curve] | 7.08 µM [falling, full curve] |
| COc1ccc(C(=O)CN2CC(C)SC2=Nc2ccc(Cl)cc2)cc1 (stereo unspecified) | – | 0.0355 µM [rising, full curve, poor fit] |
| NC(=O)CC[C@@H]1NC(=O)[C@H](Cc2ccc(O)cc2)NC(=O)c2cc([N+](=O)[O-])cc(F)c2OCC[C@@H](C(N)=O)NC1=O | – | 35.5 µM [rising, single point] |
| Cn1c(=O)n(CCCOc2ccc(Br)cc2)c2ccccc21 | 11.2 µM [rising, partial curve, poor fit] | – |
| NCCCS(=O)(=O)O | 4.47 µM [rising, partial curve, poor fit] | 0.794 µM [rising, full curve, poor fit] |
| CCOC(=O)N1CCN(Cc2nc3cc(NC(=O)c4ccccc4OC)ccc3n2C(C)C)CC1 | 8.91 µM [rising, single point] | 2.51 µM [rising, full curve] |
| O=[N+]([O-])c1cccc(-c2csc(CS(=O)(=O)Cc3ccco3)n2)c1 | 0.00562 µM [rising, full curve, poor fit] | – |
| CCN(CC)S(=O)(=O)c1ccc2c(c1)c(=O)c(C(=O)NCc1ccc3c(c1)OCO3)cn2C | – | 0.1 µM [rising, full curve, poor fit] |
| COC(=O)C1=C(C(=O)OC)[C@@H]2N(C)c3ccc(OC)cc3[C@@]23C[C@@H](C(=O)OC)N(C(=O)c2cccs2)C3=N1 | 0.355 µM [falling, partial curve, poor fit] | – |
| COc1ccc2[nH]c(=O)c(CN(CCCN(C)C)C(=O)Nc3ccc(F)cc3)cc2c1 | – | 12.6 µM [rising, single point] |
| CN(C)/C=C1\C(=O)NN=C1c1ccccc1 | 0.282 µM [falling, full curve] | 0.158 µM [falling, full curve, poor fit] |
| OCC1(Cc2ccc(Cl)cc2)CCN(CC2CC=CCC2)CC1 (stereo unspecified) | 31.6 µM [falling, partial curve] | 28.2 µM [falling, partial curve] |
| O=C1COc2ccc(C(=O)COC(=O)c3cnc(Cl)c(Cl)c3)cc2N1 | 0.501 µM [falling, partial curve, poor fit] | – |
| CCCc1nn(C)c(C(=O)Nc2ccc3ccccc3c2)c1Cl | – | 22.4 µM [rising, single point] |
| Cc1nc(CC(=O)N2CCN(c3cccc(C)c3C)CC2)cs1 | 35.5 µM [rising, single point] | 35.5 µM [rising, single point] |

2 of the compounds above, as tab-separated lines:
Structure (SMILES)	AC50 [1]	AC50 [2]
CCN(CC)S(=O)(=O)c1ccc2c(c1)c(=O)c(C(=O)NCc1ccc3c(c1)OCO3)cn2C	–	0.1 µM [rising, full curve, poor fit]
COC(=O)C1=C(C(=O)OC)[C@@H]2N(C)c3ccc(OC)cc3[C@@]23C[C@@H](C(=O)OC)N(C(=O)c2cccs2)C3=N1	0.355 µM [falling, partial curve, poor fit]	–
